Some of the results follow.
Tests used:
Assay in all cases: log2 fold change, soluble protein after heating vs DMSO (PISA); higher = thermal stabilisation; K562 cells, 10 uM, 30 min; active = over 0.2 and 3.5 SD of the protein, either way, in both replicates (recomputed)
erlotinib = compound: C#Cc1cccc(Nc2ncnc3cc(OCCOC)c(OCCOC)cc23)c1 [erlotinib]
Method in brief: (§1)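 K562 cells at 2×10^6 cells/mL were given 10 μM compound for 30 min. Aliquots then went through 3 min of heating across 48°C-58°C, were pooled, and were extracted in PBS with 0.5% NP-40 at 4°C, and the supernatant after 21,000xg for 90 min was quantified by TMTpro 16plex LC-MS/MS with channel sums equalised. Thermal stability relative to control samples, from duplicates, is given as log2 fold change.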

Sequences of proteins named here, by UniProt entry; tags and fusion partners are left off. A change or cut given only in a name is not applied to a line headed by its entry.
UniProt O75340: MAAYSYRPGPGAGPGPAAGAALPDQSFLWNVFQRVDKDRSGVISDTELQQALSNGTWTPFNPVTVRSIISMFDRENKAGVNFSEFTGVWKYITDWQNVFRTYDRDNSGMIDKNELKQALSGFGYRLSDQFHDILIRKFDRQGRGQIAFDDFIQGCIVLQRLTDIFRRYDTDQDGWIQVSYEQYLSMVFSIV
UniProt P68402: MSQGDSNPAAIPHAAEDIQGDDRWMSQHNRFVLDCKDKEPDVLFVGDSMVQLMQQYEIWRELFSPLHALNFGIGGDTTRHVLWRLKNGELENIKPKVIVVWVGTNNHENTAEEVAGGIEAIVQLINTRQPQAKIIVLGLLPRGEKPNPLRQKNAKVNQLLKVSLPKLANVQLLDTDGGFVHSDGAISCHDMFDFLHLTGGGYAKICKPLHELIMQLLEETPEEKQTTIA
UniProt Q6P996: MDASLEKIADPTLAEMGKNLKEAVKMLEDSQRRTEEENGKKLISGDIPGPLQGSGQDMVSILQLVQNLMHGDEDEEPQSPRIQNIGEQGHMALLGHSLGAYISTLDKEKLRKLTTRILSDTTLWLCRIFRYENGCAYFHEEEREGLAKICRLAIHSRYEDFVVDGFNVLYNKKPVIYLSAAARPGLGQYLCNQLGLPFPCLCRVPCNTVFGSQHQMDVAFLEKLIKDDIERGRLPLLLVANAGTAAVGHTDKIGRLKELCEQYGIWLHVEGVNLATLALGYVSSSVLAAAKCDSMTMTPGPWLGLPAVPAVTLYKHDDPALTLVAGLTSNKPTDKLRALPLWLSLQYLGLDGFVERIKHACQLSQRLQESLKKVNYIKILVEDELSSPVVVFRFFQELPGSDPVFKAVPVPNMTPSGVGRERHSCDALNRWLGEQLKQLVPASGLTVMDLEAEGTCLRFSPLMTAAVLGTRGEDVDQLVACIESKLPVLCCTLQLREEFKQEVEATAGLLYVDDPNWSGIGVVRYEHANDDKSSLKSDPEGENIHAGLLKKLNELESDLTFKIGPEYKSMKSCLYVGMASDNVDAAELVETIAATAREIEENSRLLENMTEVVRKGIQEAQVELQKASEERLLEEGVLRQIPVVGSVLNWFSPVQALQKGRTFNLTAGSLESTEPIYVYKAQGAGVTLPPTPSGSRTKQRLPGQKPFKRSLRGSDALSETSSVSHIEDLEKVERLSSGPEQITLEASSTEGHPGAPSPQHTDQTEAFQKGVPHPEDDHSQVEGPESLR
UniProt Q15365, whole entry, looked up: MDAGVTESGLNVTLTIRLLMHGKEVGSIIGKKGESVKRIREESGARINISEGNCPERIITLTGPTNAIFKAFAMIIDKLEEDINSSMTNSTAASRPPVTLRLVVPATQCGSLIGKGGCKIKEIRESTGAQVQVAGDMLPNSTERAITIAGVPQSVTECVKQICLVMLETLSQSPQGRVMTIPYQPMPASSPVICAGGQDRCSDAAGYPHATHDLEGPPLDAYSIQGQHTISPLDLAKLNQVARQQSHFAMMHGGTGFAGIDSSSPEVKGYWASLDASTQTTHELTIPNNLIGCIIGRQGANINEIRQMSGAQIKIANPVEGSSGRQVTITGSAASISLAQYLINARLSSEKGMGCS
UniProt Q9NUG6, whole entry, looked up: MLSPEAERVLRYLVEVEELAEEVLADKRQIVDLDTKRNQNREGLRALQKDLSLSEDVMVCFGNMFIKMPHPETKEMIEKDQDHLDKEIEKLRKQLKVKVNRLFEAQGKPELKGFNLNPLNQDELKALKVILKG
UniProt Q9BRP1: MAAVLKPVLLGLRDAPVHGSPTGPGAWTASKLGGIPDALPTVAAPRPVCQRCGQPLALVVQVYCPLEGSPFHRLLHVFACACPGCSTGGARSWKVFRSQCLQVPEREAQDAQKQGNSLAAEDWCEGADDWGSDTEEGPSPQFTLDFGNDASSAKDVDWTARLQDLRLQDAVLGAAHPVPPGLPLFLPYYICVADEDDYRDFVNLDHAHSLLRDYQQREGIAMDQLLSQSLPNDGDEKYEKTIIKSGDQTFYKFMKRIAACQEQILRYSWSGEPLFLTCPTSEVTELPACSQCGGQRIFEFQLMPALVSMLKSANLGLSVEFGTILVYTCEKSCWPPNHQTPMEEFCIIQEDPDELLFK
UniProt O00623: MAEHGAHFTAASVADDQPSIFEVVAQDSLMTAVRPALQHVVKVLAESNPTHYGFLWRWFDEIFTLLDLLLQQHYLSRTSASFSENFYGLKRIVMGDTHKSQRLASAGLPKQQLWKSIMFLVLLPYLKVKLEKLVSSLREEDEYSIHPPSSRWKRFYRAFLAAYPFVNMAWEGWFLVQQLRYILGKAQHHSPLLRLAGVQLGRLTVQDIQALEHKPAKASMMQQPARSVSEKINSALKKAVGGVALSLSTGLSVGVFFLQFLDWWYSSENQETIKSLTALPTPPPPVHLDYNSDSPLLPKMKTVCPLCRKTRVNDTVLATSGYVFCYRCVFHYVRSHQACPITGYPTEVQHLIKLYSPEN
UniProt O00764: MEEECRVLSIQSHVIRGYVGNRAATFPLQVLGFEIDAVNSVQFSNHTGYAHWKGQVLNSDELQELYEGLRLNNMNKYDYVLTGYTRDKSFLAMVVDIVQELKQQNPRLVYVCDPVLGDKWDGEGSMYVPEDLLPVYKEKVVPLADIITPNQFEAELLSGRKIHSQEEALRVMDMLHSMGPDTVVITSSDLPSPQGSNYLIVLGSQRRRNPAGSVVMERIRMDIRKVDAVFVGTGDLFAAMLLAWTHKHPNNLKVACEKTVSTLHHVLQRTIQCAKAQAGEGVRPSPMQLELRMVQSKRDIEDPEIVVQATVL
UniProt Q9HBI1: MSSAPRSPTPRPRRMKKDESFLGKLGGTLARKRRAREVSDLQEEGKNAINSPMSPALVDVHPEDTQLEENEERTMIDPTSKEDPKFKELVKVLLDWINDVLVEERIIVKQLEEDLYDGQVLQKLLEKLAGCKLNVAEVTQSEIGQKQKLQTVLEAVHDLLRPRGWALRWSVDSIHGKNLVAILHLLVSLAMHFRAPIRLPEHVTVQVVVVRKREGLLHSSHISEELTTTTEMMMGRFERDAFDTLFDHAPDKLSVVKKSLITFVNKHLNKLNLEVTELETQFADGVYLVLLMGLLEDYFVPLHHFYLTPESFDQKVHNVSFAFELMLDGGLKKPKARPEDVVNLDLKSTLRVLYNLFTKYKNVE
UniProt Q9BPZ3: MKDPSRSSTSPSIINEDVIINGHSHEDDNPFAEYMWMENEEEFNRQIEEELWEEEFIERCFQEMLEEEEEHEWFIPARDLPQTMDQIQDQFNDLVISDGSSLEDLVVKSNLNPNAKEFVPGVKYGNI
UniProt Q8NBM8: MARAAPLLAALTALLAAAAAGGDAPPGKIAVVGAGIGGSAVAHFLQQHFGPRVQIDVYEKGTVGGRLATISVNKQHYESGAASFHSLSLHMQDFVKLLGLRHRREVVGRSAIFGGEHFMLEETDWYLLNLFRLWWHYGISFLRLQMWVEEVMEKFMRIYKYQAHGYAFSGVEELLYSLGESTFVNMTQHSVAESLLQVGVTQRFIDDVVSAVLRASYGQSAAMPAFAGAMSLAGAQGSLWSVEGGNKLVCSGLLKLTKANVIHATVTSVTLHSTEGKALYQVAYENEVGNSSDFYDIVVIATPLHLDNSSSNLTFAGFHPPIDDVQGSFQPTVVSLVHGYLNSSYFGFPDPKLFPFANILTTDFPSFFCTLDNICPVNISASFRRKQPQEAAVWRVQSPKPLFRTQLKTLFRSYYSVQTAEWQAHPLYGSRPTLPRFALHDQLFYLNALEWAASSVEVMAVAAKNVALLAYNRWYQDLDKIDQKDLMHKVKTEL
UniProt P27815: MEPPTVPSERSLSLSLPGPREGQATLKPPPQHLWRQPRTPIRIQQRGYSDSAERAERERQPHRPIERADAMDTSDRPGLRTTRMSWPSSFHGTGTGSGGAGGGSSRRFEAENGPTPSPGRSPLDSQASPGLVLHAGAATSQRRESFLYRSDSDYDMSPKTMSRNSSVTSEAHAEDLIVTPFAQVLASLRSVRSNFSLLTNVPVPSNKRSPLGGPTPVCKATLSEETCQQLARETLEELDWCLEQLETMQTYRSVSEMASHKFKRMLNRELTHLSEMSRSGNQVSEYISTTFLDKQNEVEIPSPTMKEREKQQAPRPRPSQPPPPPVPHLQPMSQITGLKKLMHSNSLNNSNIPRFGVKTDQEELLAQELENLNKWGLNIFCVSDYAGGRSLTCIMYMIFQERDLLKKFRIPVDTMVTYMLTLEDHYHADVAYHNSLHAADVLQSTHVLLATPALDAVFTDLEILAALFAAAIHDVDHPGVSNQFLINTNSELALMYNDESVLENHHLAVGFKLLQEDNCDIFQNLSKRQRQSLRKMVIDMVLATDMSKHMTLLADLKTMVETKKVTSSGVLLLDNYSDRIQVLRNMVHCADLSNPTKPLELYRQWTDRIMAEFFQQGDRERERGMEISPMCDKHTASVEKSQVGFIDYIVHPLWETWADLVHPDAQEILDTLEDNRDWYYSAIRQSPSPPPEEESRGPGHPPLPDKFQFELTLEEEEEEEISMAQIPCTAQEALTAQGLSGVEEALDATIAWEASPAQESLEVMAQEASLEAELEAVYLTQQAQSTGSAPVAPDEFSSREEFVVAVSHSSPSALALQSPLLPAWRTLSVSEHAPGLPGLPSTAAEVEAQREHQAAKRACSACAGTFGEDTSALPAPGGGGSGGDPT
UniProt Q15118, whole entry, looked up: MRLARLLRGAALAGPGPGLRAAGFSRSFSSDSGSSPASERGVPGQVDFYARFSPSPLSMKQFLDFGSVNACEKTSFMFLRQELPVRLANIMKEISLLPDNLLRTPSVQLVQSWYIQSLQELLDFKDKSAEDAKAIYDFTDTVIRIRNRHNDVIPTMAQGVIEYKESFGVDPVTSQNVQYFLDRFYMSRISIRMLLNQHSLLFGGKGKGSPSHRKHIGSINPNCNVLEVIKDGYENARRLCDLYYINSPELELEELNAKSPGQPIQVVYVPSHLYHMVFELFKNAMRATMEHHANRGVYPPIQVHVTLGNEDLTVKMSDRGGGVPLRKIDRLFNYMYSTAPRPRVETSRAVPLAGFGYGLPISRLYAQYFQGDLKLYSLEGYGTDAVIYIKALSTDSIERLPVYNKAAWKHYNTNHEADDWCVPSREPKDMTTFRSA
UniProt Q13153, whole entry, looked up: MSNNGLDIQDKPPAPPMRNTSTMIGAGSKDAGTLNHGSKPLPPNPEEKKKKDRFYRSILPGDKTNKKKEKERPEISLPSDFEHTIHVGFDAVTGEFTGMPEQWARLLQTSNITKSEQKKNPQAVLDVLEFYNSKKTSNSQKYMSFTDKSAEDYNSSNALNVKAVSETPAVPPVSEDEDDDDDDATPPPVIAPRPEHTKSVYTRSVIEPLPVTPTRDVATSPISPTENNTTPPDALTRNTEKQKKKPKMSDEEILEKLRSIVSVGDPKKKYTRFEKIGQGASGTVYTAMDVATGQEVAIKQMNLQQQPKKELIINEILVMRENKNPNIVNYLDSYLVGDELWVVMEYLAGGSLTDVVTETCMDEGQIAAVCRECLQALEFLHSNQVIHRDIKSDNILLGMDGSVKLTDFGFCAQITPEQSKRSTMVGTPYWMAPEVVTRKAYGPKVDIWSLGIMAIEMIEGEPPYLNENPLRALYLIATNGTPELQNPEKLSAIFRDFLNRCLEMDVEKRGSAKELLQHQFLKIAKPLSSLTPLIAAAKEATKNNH
UniProt P12004, whole entry, looked up: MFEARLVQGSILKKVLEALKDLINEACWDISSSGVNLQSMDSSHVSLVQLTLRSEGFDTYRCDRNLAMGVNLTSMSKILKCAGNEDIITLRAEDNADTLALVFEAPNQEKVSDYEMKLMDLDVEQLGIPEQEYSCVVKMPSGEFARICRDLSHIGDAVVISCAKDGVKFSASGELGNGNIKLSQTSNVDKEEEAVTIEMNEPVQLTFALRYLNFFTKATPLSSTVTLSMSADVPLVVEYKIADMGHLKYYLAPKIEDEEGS
UniProt Q9Y5K3: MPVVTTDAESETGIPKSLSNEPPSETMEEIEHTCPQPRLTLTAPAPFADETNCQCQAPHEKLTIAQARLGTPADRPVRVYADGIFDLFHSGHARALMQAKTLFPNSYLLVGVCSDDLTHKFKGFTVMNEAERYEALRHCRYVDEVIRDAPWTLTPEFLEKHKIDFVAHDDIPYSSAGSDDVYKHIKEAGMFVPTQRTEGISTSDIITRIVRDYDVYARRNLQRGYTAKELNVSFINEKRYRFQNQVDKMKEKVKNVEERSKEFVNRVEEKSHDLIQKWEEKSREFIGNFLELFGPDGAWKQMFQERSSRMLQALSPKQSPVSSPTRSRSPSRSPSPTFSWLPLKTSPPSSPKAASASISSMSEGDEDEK
UniProt Q99447: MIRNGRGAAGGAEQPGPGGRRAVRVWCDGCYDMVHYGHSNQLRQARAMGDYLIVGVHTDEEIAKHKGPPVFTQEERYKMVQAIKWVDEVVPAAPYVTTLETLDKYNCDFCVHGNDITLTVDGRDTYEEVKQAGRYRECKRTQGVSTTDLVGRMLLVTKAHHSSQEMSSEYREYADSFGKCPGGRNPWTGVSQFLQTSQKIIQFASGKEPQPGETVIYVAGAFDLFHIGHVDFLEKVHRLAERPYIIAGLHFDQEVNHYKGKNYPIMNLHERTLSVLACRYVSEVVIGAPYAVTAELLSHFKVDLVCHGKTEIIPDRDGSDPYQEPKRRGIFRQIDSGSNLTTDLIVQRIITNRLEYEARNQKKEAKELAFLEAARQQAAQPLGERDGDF

[1] = compound: C/C(=N\NC(=O)C1=CC(=CC=C1)S(=O)(=O)N2CCOCC2)/C3=C(C=CC(=C3)Cl)O
Method in brief: as §1

[2] = compound: C1=CC(=C(C=C1Cl)C2=NC3=NC=CN=C3C(=N2)NC4=CC=NC=C4)F
Method in brief: as §1

[3] = compound: C1=CC(=CC=C1C2=NC3=C(N2)C=C(C=C3)C(=O)N)OC4=CC=C(C=C4)Cl
Method in brief: as §1

[4] = compound: C1=CC2=C(C=CC(=C2)/C=C\3/C(=O)NC(=NCC4=CC=CS4)S3)N=C1
Method in brief: as §1

[5] = compound: C1=CC2=NC=CN=C2C=C1/C=C/3\C(=O)NC(=O)S3
Method in brief: as §1

[6] = compound: C1=CC=C(C=C1)C2=NC(=C(N2)C3=CC=NC=C3)C4=CC(=C(C=C4)Cl)O
Method in brief: as §1

[7] = compound: C1=CC=C2C(=C1)C3=NNC4=CC=CC(=C43)C2=O
Method in brief: as §1

[8] = compound: C1CCN(C1)C(=O)NC2=CC=CC(=C2)NC3=NC=C(C(=N3)NCCC4=CN=CN4)Br
Method in brief: as §1

[9] = compound: C1CN(CCC1(CC2=CC=C(C=C2)Cl)N)C3=NC=NC4=C3C=CN4
Method in brief: as §1

Measured: log2 fold change

PAIP1 (UniProt Q9H074)
inactive: erlotinib -0.047 | [1] 0.043 | [2] 0.012 | [3] 0.054 | [4] 0.012 | [5] 0.034 | [6] -0.065 | [7] -0.05 | [8] -0.023 | [9] -0.024

PDCD6 (UniProt O75340)
inactive: erlotinib -0.006 | [1] 0.038 | [2] 0.066 | [3] 0.004 | [4] 0.034 | [5] 0.02 | [6] -0.061 | [7] 0.029 | [8] 0.024 | [9] -0.048

PAFAH1B2 (UniProt P68402)
inactive: erlotinib 0.195 | [1] -0.088 | [2] 0.134 | [3] -0.016 | [4] -0.036 | [5] -0.034 | [6] 0.068 | [7] 0.027 | [8] 0.128 | [9] 0.047

PANK3 (UniProt Q9H999)
inactive: erlotinib -0.002 | [1] -0.101 | [2] 0.017 | [3] 0.049 | [4] 0.102 | [5] -0.045 | [6] -0.017 | [7] -0.111 | [8] -0.031 | [9] 0.079

PBX2 (UniProt P40425)
inactive: erlotinib 0.111 | [1] 0.076 | [2] 0.055 | [3] 0.007 | [4] 0.009 | [5] -0.039 | [6] 0.091 | [7] -0.098 | [8] -0.036 | [9] -0.269

PDXDC1 (UniProt Q6P996)
inactive: erlotinib -0.033 | [1] 0.125 | [2] -0.053 | [3] -0.077 | [4] -0.171 | [5] 0.008 | [6] -0.155 | [7] 0.095 | [8] -0.152 | [9] -0.2

PCBP1 (UniProt Q15365)
inactive: erlotinib -0.009 | [1] 0.092 | [2] 0.062 | [3] -0.031 | [4] 0.011 | [5] -0.002 | [6] 0.057 | [7] 0.031 | [8] -0.034 | [9] 0.002

PEF1 (UniProt Q9UBV8)
inactive: erlotinib -0.053 | [1] 0.108 | [2] 0.079 | [3] -0.029 | [4] 0.134 | [5] -0.064 | [6] 0.109 | [7] 0.035 | [8] -0.008 | [9] -0.069

PDE4DIP isoform 4 (UniProt Q5VU43)
inactive: erlotinib 0.027 | [1] -0.002 | [2] 0.186 | [3] 0.01 | [4] 0.089 | [5] -0.043 | [6] -0.059 | [7] -0.02 | [8] -0.037 | [9] -0.061

PDRG1 (UniProt Q9NUG6)
inactive: erlotinib -0.006 | [1] -0.032 | [2] -0.033 | [3] 0.013 | [4] -0.019 | [5] 0.037 | [6] 0.141 | [7] -0.051 | [8] -0.045 | [9] -0.098

PDCD2L (UniProt Q9BRP1)
inactive: erlotinib -0.051 | [1] 0.226 | [2] 0.128 | [3] 0.03 | [4] 0.006 | [5] -0.03 | [6] -0.078 | [7] -0.001 | [8] -0.071 | [9] -0.036

PEX12 (UniProt O00623)
inactive: erlotinib 0.011 | [1] 0.154 | [2] 0.045 | [3] 0.16 | [4] -0.014 | [5] -0.115 | [6] 0.024 | [7] 0 | [8] -0.004 | [9] -0.012

PAK3 isoform 3 (UniProt O75914)
inactive: erlotinib 0.024 | [1] 0.049 | [2] 0.021 | [3] -0.026 | [4] -0.022 | [5] -0.004 | [6] 0.051 | [7] -0.003 | [8] 0.014 | [9] 0.02

Copied from the entries so far (6 entries):
PAFAH1B2 (UniProt P68402)
inactive: erlotinib 0.195 | [1] -0.088 | [2] 0.134 | [3] -0.016 | [4] -0.036 | [5] -0.034 | [6] 0.068 | [7] 0.027 | [8] 0.128 | [9] 0.047

PANK3 (UniProt Q9H999)
inactive: erlotinib -0.002 | [1] -0.101 | [2] 0.017 | [3] 0.049 | [4] 0.102 | [5] -0.045 | [6] -0.017 | [7] -0.111 | [8] -0.031 | [9] 0.079

PBX2 (UniProt P40425)
inactive: erlotinib 0.111 | [1] 0.076 | [2] 0.055 | [3] 0.007 | [4] 0.009 | [5] -0.039 | [6] 0.091 | [7] -0.098 | [8] -0.036 | [9] -0.269

PDXDC1 (UniProt Q6P996)
inactive: erlotinib -0.033 | [1] 0.125 | [2] -0.053 | [3] -0.077 | [4] -0.171 | [5] 0.008 | [6] -0.155 | [7] 0.095 | [8] -0.152 | [9] -0.2

PCBP1 (UniProt Q15365)
inactive: erlotinib -0.009 | [1] 0.092 | [2] 0.062 | [3] -0.031 | [4] 0.011 | [5] -0.002 | [6] 0.057 | [7] 0.031 | [8] -0.034 | [9] 0.002

PEF1 (UniProt Q9UBV8)
inactive: erlotinib -0.053 | [1] 0.108 | [2] 0.079 | [3] -0.029 | [4] 0.134 | [5] -0.064 | [6] 0.109 | [7] 0.035 | [8] -0.008 | [9] -0.069

Following part

PDXK (UniProt O00764)
inactive: erlotinib 0.006 | [1] -0.026 | [2] 0.073 | [3] 0.022 | [4] -0.011 | [5] -0.032 | [6] 0.034 | [7] 0.009 | [8] -0.01 | [9] 0.037

PARVB (UniProt Q9HBI1)
inactive: erlotinib -0.006 | [1] 0.057 | [2] 0.012 | [3] 0.074 | [4] 0.032 | [5] 0.032 | [6] 0.056 | [7] -0.006 | [8] -0.009 | [9] 0.032

PAIP2 (UniProt Q9BPZ3)
inactive: erlotinib -0.006 | [1] 0.032 | [2] -0.145 | [3] 0.028 | [4] -0.223 | [5] 0.063 | [6] -0.008 | [7] 0.062 | [8] 0.073 | [9] -0.216

PANK1 (UniProt Q8TE04)
inactive: erlotinib -0.049 | [1] -0.044 | [2] 0.01 | [3] 0.058 | [4] 0.028 | [5] -0.101 | [6] -0.013 | [7] -0.052 | [8] -0.017 | [9] 0.017

PCNT (UniProt O95613)
inactive: erlotinib 0.284 | [1] -0.138 | [2] -0.095 | [3] -0.099 | [4] 0.15 | [5] -0.023 | [6] -0.079 | [7] -0.097 | [8] 0.065 | [9] -0.021

PCYOX1L (UniProt Q8NBM8)
inactive: erlotinib -0.025 | [1] 0.027 | [2] -0.031 | [3] 0.013 | [4] 0.035 | [5] -0.003 | [6] 0.066 | [7] -0.016 | [8] 0.025 | [9] 0.057

PDE4A (UniProt P27815)
inactive: erlotinib 0.012 | [1] 0.013 | [2] 0.319 | [3] 0.024 | [4] 0.027 | [5] 0.06 | [6] -0.077 | [7] -0.01 | [8] 0.023 | [9] -0.148

PDK1 (UniProt Q15118)
inactive: erlotinib -0.004 | [1] 0.036 | [2] -0.025 | [3] 0.009 | [4] 0.07 | [5] 0.035 | [6] -0.146 | [7] 0.076 | [8] 0.086 | [9] -0.028

PALM3 (UniProt A6NDB9)
inactive: erlotinib 0.004 | [1] -0.02 | [2] -0.032 | [3] 0.019 | [4] 0.018 | [5] 0.036 | [6] 0.053 | [7] -0.052 | [8] -0.066 | [9] 0.068

PAK1 isoform 2 (UniProt Q13153)
inactive: erlotinib 0.063 | [1] 0.105 | [2] 0.067 | [3] -0.013 | [4] 0.009 | [5] 0.086 | [6] 0.027 | [7] -0.008 | [8] 0.014 | [9] 0.083

PAXIP1 (UniProt Q6ZW49)
inactive: erlotinib -0.034 | [1] 0.118 | [2] 0.014 | [3] 0.004 | [4] -0.129 | [5] -0.065 | [6] 0.255 | [7] 0.038 | [8] 0.007 | [9] 0.091

PC (UniProt P11498)
inactive: erlotinib -0.037 | [1] 0.101 | [2] 0.117 | [3] 0.056 | [4] 0.047 | [5] -0.042 | [6] 0.042 | [7] 0.031 | [8] -0.022 | [9] 0.012

PCNA (UniProt P12004)
inactive: erlotinib -0.016 | [1] 0.017 | [2] 0.026 | [3] 0.003 | [4] -0.006 | [5] -0.006 | [6] 0.015 | [7] 0.014 | [8] 0.03 | [9] 0.018

PCYT1B (UniProt Q9Y5K3)
inactive: erlotinib 0.05 | [1] 0.068 | [2] -0.043 | [3] 0.023 | [4] 0.078 | [5] 0.079 | [6] -0.066 | [7] 0.004 | [8] 0.01 | [9] -0.003

PCYT2 isoform 3 (UniProt Q99447)
inactive: erlotinib -0.019 | [1] -0.022 | [2] 0.07 | [3] 0.004 | [4] -0.012 | [5] 0.008 | [6] -0.023 | [7] 0.017 | [8] -0.023 | [9] 0.075

PDXP (UniProt Q96GD0)
inactive: erlotinib 0.011 | [1] -0.038 | [2] 0.007 | [3] 0.016 | [4] 0.024 | [5] 0.026 | [6] 0 | [7] -0.013 | [8] 0.016 | [9] 0.026

Source: the supplement of paper PMC10849652
